The target of the experiment is T1, calcium and integrin binding protein-1 (CIB1) (human (endogenous in HMVEC-d)) (UniProt Q99828).
T1 sequence: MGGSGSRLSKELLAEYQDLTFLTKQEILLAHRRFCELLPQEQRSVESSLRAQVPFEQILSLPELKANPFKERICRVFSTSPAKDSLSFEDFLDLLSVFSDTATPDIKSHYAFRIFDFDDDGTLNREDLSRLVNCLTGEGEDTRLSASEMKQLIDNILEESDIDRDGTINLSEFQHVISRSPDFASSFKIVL
The experiment in a line: co-IP; 200 µg lysate of serum-starved HMVEC-d cells (25 mM Tris-HCl pH 7.5, 150 mM NaCl, 1% NP40, 2 mM EDTA, 10% glycerol), overnight at 4°C with anti-CIB1 or anti-EphA2 antibody, protein G-sepharose, Western blot; cells mock or KSHV infected (5, 10, 30 min), infected with heparin-treated KSHV, or CIB1-shRNA transduced.

These are yes or no findings as the source states them, for the method shown. Binding seen in cells or lysates may run through a third protein. Binding calls can cover weak binding; strength is not graded here.

As for “PI3-K (human (endogenous in HMVEC-d)) (enzyme)”, the binding entry is listed as “binds”.

(Values after article PMC3923796.)
